# Patent US10556936B2, “Immunogenic proteins and fragments thereof from allergenic mites” (ALK-ABELLÓ A/S, priority 2016, dated 2020)
# B1: A001: house dust mite protein; SEQ ID NO: 13 (Der f), 14 (Der p); recombinant test protein (protein)
# chain: KKSPDCDIERPIRECLKDGLLRYSSGQKINQFPDTIQDLNRACEELKKSETCARTFIDTCTESSYEKRSLDSLLDGIQRVMKRLCRSQTKKEKLLENVGCANSVVQDTKQCLKNYRMLVFAANKLDNKNKIMRILCCKSRKVAPCIGEAMKAKGTAVCSAKNIDYFKDVHQNIKQEMTAVVCSDFERDQCENVDVPNISESEYKDQNIFNPLRDLYKKVILG
# B2: A007: house dust mite protein; SEQ ID NO: 30 (Der f), 31 (Der p), 306 (Blo t) (protein)
# chain: MAKFNYLPVDVQEELRNTANAIVSVGKGILAADESTGTIGKRFADINVENVEQNRQAYRQLLFYSEGIEQYISGVILFDETVYQKDDKGVPFPELLKKKGIIPGIKVDTGVVTLQGTNGESTTQGLDNLTKRCQEYYNQGCRFAKWRCVLKIGQDEPSSLAIVENANVLARYASCCQQARIVPIVEPEILPDGDHNLERCQKVTETVLAAVYKALNDHHVYLEGTLLKPNMVTPGQSCPQKASPQEVAQATVTALQRTVPAAVPGIVFLSGGQSEEEASVNLNAINQYQGKKPWALSFSYGRALQASALRAWQGKPENIGAGQKELLQRAKANVLAHKGQYVAGSIPSLASAKSNFVAQHKY
# B3: A003: house dust mite protein; SEQ ID NO: 2 (Der f), 3 (Der p), 305 (Blo t) (protein)
# chain: MAIDGKYQMESSEHFEEFVKEMGLDVDMTNVDLSKTSTMEICKDGDVYHIKSETAGIAHEIKFKVGEEFEDDMNGHKFKNVVTMECDNKMVQKKTSADGGKVVNVVREFTDAGCTVKSTYNTVTWTRVYKRM
# B4: A009: house dust mite protein; SEQ ID NO: 43 (Der f), 44 (Der p), 307 (Blo t) (protein)
# chain: VVIKVENLPEQCDYTQCPKWSKDDINVHLVAHTHDDVGWLKTVEQYYYGLKNDIQRAGVQYILDTMIEELIRNKDRRFIYVEIAFFWKWWQEQNEEQRMIVKELVRTGQLEFINGGWSMPDEAATHYNSLIDQSTWGLRQLNDTFGRCGHPKVTWQIDPFGHSKEMANLYAQMGYDALFFARQDYQDRENRMSNRTLEHVWQGSDDLGEIGDIFTGMMFSGYGPIEFNWDITNGPEDAVVDNPESEEYNVPDKIRRFVEKAKYFGQFYATNHFMFPMGTDFQYTDAHTWFKNLDKLINAVNKAGKGVRAFYSTPSCYAHALYEQNRTWTTKTDDFFPYASDEHAYWTGYFTSRPAIKRMERIGNNLLQACKQLDVLADNNGRFEMNLTKMREAMGVMQHHDAVTGTEKQHVAFNYAKMLDSAMLQCRHIINESYKKLLPKSSTSEHEFCPYLNISSCPTTEMGESRIIYLYNPLGHRLINHTVRLPIKNGYYYRIQDQNNQSVPSVLVPIPEFVQKIPGRKSVATKELVFRVPVIEPLGITTMYMYVDKNEQPNSAIEIKGENPDDNDDKSKWLVLTKNLIVEFYSNGTISRISIDKLHQSISISNEFRLYHGAGGTGRHSGAYIFRPNEQKTFPVTNKIKSTFFIDRKYHIVQEVHQQFDSSFVGQIIRMDKYNDNVEFDFVVGPIPVNDQIGKEIIASYKTDLENDETFYTDANGRQMLRRRWNYRPSWKYNVQEPISGNYYPVNSRIAIRDEKQSLQMTIMTDRSQGGSLSPEQINGSIDIMIHRRLLHDDYFGVGEALNEPGVDGHGLVIRGKHLLLLNSIKQSASEHRPLAQQMFMEPIISFTSIESNKQAEKQSNQYIGLNNDLPSNVHLLTLEQWHSKRYLLRLEHFYQSNEDTELSKPVKLSLRHLFKSFEIIAVEELTLGANQPISSLKNRLHYRYNRPLEQRQQQQSSLLLDDPKIEGENFDIHLSPMQIRTFLIDIKRN
# Test: Relative abundance in house dust mite extracts (emPAI, MS/MS)
# Conditions: sum of all hits = 100%
Molecule,"relative abundance, Der f bodies, Mild extraction (10 min) [molar %]","relative abundance, Der f fecals Mild extraction (10 min) [molar %]","relative abundance, Der f full extract [molar %]","relative abundance, Der p bodies Mild extraction (10 min) [molar %]","relative abundance, Der p fecals Mild extraction (10 min) [molar %]","relative abundance, Der p full extract [molar %]"
B1,8.0,11.6,9.2,5.0,0.5,4.5
B2,4.5,2.4,3.5,1.3,0.3,2.1
B3,19.0,11.9,13.5,3.9,<0.0,17.8
B4,2.3,0.6,0.4,1.0,0.3,0.6
